Results on 36 targets are retold here after the supplement of paper PMC12819154, “High-throughput peptide-centric local stability assay extends protein–ligand identification to membrane proteins, tissues and bacteria” (Nature Structural & Molecular Biology, 2025).

Protein sequences, listed by entry. Tags and fused reporters are not part of them. Lines headed by an entry give the natural chain unless they say otherwise; changes in a name come on top.
UniProt Q99PM9: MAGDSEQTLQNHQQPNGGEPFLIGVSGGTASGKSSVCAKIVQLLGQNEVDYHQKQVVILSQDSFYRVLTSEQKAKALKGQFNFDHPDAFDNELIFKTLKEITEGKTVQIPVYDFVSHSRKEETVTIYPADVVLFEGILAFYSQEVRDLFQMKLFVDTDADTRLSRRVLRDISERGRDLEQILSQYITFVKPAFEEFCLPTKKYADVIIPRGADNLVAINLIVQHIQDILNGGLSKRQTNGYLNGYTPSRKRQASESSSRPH
UniProt Q99M07: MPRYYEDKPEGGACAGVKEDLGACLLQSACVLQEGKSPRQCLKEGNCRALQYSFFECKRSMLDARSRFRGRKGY
UniProt Q9CQ20, whole entry: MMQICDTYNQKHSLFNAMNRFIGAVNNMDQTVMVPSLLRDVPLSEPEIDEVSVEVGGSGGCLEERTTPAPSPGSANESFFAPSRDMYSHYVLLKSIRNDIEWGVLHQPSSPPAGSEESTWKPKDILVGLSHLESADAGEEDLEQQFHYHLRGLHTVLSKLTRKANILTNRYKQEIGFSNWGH
UniProt Q9CQG2: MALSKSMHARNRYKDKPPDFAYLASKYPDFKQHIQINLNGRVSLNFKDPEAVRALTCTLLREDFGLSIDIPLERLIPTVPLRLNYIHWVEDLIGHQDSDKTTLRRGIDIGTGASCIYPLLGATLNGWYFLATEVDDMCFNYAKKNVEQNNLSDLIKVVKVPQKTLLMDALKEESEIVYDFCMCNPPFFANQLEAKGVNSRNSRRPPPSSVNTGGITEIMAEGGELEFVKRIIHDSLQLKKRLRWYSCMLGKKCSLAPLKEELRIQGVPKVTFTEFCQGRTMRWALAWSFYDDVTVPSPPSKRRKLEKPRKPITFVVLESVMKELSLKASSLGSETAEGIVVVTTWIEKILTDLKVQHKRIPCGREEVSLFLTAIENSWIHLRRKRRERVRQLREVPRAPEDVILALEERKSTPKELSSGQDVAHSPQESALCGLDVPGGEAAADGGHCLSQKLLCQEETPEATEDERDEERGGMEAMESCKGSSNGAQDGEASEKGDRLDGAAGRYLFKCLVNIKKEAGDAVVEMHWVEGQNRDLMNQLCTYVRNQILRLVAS
UniProt Q9CQT9: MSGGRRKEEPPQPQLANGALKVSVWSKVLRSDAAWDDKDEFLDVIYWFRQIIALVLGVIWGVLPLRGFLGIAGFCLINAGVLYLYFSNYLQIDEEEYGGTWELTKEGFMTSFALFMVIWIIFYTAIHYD
UniProt Q9CQJ2, whole entry: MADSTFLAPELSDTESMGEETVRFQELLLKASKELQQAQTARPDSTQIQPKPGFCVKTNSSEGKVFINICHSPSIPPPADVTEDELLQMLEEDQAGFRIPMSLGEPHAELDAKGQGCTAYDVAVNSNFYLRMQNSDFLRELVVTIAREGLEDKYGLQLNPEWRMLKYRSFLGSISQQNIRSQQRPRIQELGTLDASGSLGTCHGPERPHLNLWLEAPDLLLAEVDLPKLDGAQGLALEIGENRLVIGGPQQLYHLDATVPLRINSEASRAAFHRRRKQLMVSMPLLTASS
UniProt Q9CQI4: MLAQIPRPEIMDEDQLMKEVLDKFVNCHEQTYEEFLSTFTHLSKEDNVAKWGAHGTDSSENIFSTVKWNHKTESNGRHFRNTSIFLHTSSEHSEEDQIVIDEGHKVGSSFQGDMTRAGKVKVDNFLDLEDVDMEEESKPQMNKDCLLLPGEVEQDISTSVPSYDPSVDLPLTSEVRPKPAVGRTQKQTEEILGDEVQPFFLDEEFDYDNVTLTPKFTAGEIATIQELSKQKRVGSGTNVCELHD
UniProt Q99NF3: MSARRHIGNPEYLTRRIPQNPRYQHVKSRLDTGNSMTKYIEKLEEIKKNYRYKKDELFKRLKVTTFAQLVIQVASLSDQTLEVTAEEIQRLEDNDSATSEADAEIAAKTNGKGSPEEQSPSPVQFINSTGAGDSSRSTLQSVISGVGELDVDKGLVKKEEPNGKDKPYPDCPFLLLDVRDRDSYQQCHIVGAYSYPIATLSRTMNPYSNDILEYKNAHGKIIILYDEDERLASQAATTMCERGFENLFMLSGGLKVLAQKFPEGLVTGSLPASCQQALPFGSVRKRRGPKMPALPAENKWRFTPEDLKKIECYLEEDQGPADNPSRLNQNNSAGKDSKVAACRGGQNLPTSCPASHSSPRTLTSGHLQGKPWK
UniProt Q9CQV8: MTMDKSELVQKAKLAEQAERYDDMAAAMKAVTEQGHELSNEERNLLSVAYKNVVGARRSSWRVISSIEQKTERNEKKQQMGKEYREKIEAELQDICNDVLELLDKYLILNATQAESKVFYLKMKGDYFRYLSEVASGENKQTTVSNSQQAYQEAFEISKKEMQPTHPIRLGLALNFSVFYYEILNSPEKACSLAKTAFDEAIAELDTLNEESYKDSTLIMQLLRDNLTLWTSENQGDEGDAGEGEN
UniProt Q99LM9: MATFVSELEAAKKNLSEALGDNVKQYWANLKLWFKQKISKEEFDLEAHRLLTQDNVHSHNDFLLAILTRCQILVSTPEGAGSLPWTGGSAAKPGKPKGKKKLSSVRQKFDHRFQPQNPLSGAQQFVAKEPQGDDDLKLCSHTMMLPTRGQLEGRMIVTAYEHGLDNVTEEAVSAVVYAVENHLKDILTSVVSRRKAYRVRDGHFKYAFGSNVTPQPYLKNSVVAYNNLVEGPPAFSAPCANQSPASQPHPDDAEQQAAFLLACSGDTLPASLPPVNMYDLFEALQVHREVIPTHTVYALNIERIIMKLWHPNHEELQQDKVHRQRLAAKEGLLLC
UniProt Q99PS0: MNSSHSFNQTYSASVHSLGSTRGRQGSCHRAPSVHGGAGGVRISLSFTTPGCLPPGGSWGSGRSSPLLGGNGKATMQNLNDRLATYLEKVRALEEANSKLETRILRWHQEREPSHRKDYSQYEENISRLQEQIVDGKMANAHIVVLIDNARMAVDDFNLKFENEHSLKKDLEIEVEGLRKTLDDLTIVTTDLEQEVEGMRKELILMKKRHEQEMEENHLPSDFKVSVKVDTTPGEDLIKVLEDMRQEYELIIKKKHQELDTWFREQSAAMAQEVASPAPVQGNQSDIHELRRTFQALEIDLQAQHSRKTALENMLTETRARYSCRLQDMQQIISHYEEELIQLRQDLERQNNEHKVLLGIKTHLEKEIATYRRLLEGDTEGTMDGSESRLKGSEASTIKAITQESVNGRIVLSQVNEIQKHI
UniProt Q99LU0: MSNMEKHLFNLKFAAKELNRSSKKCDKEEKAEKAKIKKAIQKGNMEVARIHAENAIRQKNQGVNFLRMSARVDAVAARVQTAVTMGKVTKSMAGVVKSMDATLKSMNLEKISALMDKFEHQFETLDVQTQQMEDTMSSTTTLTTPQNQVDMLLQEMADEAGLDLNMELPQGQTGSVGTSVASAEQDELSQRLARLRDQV
UniProt Q99PJ2: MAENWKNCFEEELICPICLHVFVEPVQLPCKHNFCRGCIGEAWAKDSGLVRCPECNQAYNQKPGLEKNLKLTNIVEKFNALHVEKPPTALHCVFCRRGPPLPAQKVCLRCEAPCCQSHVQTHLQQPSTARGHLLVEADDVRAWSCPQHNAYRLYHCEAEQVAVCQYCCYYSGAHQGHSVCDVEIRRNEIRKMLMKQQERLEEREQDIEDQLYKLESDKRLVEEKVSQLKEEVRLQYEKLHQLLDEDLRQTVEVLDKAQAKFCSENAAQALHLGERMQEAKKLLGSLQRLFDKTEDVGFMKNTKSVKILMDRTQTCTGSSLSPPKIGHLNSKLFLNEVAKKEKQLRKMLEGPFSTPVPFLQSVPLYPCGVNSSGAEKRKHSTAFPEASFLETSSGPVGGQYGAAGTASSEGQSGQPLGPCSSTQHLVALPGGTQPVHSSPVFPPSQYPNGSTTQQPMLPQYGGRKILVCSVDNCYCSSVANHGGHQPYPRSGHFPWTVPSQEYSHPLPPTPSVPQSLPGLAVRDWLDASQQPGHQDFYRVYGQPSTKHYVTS
UniProt Q99P72: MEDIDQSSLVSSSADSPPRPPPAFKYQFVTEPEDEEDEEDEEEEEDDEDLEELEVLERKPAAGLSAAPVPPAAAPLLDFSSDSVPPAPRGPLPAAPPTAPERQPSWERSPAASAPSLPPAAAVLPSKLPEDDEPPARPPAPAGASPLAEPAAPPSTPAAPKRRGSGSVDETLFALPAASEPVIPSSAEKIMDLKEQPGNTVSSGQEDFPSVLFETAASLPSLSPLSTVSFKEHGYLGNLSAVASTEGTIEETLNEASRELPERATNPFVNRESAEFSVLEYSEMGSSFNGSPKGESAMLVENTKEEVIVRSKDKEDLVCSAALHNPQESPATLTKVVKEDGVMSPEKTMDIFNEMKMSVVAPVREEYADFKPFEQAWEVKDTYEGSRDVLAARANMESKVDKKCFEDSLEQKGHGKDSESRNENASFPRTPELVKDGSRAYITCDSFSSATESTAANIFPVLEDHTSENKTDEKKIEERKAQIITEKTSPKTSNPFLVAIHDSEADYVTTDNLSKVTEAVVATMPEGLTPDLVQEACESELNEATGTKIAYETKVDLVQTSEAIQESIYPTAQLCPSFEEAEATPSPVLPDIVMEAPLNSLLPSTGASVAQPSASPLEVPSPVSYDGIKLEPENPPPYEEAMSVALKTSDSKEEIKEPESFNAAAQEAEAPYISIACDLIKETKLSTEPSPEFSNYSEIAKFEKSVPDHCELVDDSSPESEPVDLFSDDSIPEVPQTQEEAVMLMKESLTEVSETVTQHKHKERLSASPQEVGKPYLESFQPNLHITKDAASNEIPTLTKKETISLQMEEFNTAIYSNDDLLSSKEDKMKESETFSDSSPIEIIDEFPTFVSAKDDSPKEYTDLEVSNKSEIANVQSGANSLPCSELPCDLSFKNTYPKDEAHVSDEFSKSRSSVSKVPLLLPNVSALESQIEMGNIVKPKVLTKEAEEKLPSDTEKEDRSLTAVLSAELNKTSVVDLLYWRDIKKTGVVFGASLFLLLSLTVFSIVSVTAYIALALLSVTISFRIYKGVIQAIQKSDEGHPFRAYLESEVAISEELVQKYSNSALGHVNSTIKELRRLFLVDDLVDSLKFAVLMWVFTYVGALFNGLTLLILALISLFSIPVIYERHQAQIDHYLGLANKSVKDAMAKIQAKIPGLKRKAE
UniProt Q99NF1: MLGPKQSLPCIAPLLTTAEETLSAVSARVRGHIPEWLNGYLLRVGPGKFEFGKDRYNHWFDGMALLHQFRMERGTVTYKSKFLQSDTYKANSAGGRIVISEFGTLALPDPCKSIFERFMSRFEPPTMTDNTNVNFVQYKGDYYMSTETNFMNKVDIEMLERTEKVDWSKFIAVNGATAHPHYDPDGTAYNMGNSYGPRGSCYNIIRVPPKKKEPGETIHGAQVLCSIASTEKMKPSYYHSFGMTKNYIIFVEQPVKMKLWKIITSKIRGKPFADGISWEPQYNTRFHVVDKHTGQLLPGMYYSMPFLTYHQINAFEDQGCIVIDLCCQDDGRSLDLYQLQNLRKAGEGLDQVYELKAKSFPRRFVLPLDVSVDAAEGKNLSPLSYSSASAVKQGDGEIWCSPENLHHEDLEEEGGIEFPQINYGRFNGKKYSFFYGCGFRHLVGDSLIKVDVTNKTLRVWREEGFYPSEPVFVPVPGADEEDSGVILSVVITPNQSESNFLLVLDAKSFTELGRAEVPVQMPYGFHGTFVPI
UniProt Q99LQ7: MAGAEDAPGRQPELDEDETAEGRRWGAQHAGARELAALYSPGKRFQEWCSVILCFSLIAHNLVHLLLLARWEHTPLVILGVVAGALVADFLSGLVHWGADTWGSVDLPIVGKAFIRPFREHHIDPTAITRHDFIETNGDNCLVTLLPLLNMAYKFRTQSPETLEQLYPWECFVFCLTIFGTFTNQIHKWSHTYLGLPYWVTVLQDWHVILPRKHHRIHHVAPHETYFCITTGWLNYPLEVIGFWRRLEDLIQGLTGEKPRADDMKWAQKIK
UniProt Q99MD8: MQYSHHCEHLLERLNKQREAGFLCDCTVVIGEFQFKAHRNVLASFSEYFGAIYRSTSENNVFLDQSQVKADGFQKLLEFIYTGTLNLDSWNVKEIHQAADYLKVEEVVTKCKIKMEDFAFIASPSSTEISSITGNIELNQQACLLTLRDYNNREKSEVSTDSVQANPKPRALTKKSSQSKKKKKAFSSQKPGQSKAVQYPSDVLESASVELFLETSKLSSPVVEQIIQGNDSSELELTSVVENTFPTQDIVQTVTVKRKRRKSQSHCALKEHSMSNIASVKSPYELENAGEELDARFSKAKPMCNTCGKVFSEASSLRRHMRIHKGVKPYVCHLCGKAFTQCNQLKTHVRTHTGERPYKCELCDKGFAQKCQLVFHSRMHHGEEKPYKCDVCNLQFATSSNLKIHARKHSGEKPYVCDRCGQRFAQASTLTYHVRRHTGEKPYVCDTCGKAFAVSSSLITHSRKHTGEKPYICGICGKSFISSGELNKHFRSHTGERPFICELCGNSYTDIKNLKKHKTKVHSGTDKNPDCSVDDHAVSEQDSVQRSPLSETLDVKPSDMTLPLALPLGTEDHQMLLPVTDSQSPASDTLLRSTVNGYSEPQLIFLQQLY
UniProt Q9CPQ1: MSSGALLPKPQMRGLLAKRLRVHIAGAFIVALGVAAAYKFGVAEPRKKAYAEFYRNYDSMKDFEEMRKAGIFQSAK

Some of the results follow. Most values lie at the level of the controls, where differences are scatter.

Compound in this assay: CN[C@@H]1C[C@H]2O[C@@](C)([C@@H]1OC)n1c3ccccc3c3c4c(c5c6ccccc6n2c5c31)C(=O)NC4 [staurosporine]
Put plainly: log2 fold change of tryptic peptide abundance, ligand vs vehicle (limited proteolysis) (log2 ratio); higher = more trypsin-susceptible (destabilized). The conditions noted are these: ligand concentration: 20 uM; sample: mouse liver crude lysate; replicate design: treated separately.
As for “UniProt Q9CPY0 (peptide sequence: KESSEVYLLATQYR, peptide start residue: 225)”, the log2 fold change was -0.339. To “UniProt Q99PM9 (peptide sequence: QASESSSRPH, peptide start residue: 252)” belongs -0.483; to “UniProt Q99M07 (peptide sequence: YYEDKPEGGACAGVK, peptide start residue: 4)”, 0.12; to “UniProt Q9CQ20 (peptide sequence: KANILTNR, peptide start residue: 163)”, -0.158.

“UniProt Q9CQG2 (peptide sequence: LRWYSCMLGKK, peptide start residue: 242)”: the log2 fold change was -0.516. Take “UniProt Q9CQ75 (peptide sequence: ECSEVQPK, peptide start residue: 57)”: the log2 fold change is 0.215. Then “UniProt Q9CQT9 (peptide sequence: RKEEPPQPQLANGALK, peptide start residue: 6)”, with 0.197; and “UniProt Q99MR6 (peptide sequence: MLDAAVIK, peptide start residue: 249)”, with -0.52. As for “UniProt Q9CQI3 (peptide sequence: YQHDDGR, peptide start residue: 75)”, the log2 fold change amounted to 0.223.

Regarding “UniProt Q9CQJ2 (peptide sequence: FQELLLK, peptide start residue: 24)”, the log2 fold change is -0.0719. To “UniProt Q9CQI4 (peptide sequence: VGSGTNVCELHD, peptide start residue: 233)” belongs -0.144; to “UniProt Q99N96 (peptide sequence: EKTSDEKPVDDIEK, peptide start residue: 63)”, 0.144. To “UniProt Q99NF3 (peptide sequence: HIGNPEYLTR, peptide start residue: 6)” belongs 0.433; to “UniProt Q99PI4 (peptide sequence: GYLQWVSEHGCGLPK, peptide start residue: 698)”, -0.376; to “UniProt Q9CQV8 (peptide sequence: AVTEQGHELSNEERNLLSVAYK, peptide start residue: 30)”, -0.472. Regarding “UniProt Q99LM9 (peptide sequence: QYWANLK, peptide start residue: 25)”, the log2 fold change worked out at 0.0338.

In the case of “UniProt Q9CQN7 (peptide sequence: LFQLYPK, peptide start residue: 125)”, the log2 fold change is 0.247. To “UniProt Q9CQB2 (peptide sequence: TGPTQQQVESR, peptide start residue: 17)” belongs 0.161. To “UniProt Q99PS0 (peptide sequence: IVLSQVNEIQK, peptide start residue: 410)” belongs -0.12; to “UniProt Q9CR10 (peptide sequence: ALAILEEHVTDENLK, peptide start residue: 172)”, 0.171. In the case of “UniProt Q9CQU5 (peptide sequence: LDGSHQELETLK, peptide start residue: 190)”, the log2 fold change was found to be 0.103. To “UniProt Q99LU0 (peptide sequence: VQTAVTMGK, peptide start residue: 79)” belongs 0.056; to “UniProt Q9CQ18 (peptide sequence: HDADGLQASFR, peptide start residue: 54)”, 0.164.

For the target “UniProt Q99N69 (peptide sequence: TLSSQGNTSPLK, peptide start residue: 46)”, the log2 fold change amounted to 0.0382. Then “UniProt Q99PJ2 (peptide sequence: GHLLVEADDVR, peptide start residue: 131)”, with 0.282; and “UniProt Q9CQC9 (peptide sequence: IDRPEAISEER, peptide start residue: 136)”, with -0.135. Then “UniProt Q99P72 (peptide sequence: HQAQIDHYLGLANK, peptide start residue: 1128)”, with 0.449; and “UniProt Q9CPY1 (peptide sequence: MFIEDLHNLNKR, peptide start residue: 102)”, with 0.0558; and “UniProt Q99NF1 (peptide sequence: KKEPGETIHGAQVLCSIASTEK, peptide start residue: 211)”, with 0.288. For “UniProt Q9CPV4 (peptide sequence: KLEWPLSK, peptide start residue: 102)”, the log2 fold change is -0.527.

In the case of “UniProt Q99P81 (peptide sequence: AILDQLLGEQKLER, peptide start residue: 340)”, the log2 fold change amounted to 0.15. Then “UniProt Q99NG0 (peptide sequence: SHVLHSLLEGFVQR, peptide start residue: 547)”, with -0.488. Consider “UniProt Q99LQ7 (peptide sequence: WGAQHAGAR, peptide start residue: 25)”, for which the log2 fold change is -0.161. For “UniProt Q9CPW4 (peptide sequence: DRAGSIVLK, peptide start residue: 73)”, the log2 fold change amounted to 0.325. Then “UniProt Q99MD8 (peptide sequence: EKSEVSTDSVQANPKPR, peptide start residue: 154)”, with 0.139; and “UniProt Q9CPQ1 (peptide sequence: NYDSMKDFEEMR, peptide start residue: 56)”, with -0.179.
